From a melanoma drug combination screen (doi:10.1371/journal.pone.0140310); values rounded.

Drugs:
fludarabine, 1 µM: Nc1nc(F)nc2c1ncn2[C@@H]1O[C@H](CO)[C@@H](O)[C@@H]1O
dorsomorphin, 2 µM: c1cc(-c2cnn3cc(-c4ccc(OCCN5CCCCC5)cc4)cnc23)ccn1
everolimus, 0.1 µM: CO[C@H]1C[C@@H]2CC[C@@H](C)[C@@](O)(O2)C(=O)C(=O)N2CCCC[C@H]2C(=O)O[C@H]([C@H](C)C[C@@H]2CC[C@@H](OCCO)[C@H](OC)C2)CC(=O)[C@H](C)/C=C(\C)[C@@H](O)[C@@H](OC)C(=O)[C@H](C)C[C@H](C)/C=C/C=C/C=C/1C
temozolomide, 10 µM: Cn1nnc2c(C(N)=O)ncn2c1=O
FK866, 0.05 µM: O=C(/C=C/c1cccnc1)NCCCCC1CCN(C(=O)c2ccccc2)CC1
enzastaurin, 4 µM: Cn1cc(C2=C(c3cn(C4CCN(Cc5ccccn5)CC4)c4ccccc34)C(=O)NC2=O)c2ccccc21
GW9662, 10 µM: O=C(Nc1ccccc1)c1cc([N+](=O)[O-])ccc1Cl
lenalidomide, 5 µM: Nc1cccc2c1CN(C1CCC(=O)NC1=O)C2=O (configuration not stated)

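The test systems are human melanoma cell lines, treated with a pair of drugs for 72 h and then stained and imaged. Values are the share of nuclei positive for cleaved PARP as a percentage of the same share in the DMSO control: 100 is the control level, higher means more apoptosis. Concentrations were fixed for each drug; these are the higher of two levels. The file gives one value for each pair and line, without errors, so small differences may be noise. The marker varies much from line to line, for technical or biological reasons.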 Only some of the drugs and lines screened are listed, without regard to their results. A dash means that no value is listed here.

Combination,IST-MEL1,WM1745,WM451Lu,UACC-62,COLO 792,WM3619,WM115,SK-MEL-2,SK-MEL-28,C32
lenalidomide and fludarabine,42.1,85.0,43.4,203,92.1,111,95.0,1350,1870,143
GW9662 and lenalidomide,54.6,98.0,62.4,272,93.8,134,126,286,265,89.5
fludarabine and everolimus,329,122,98.4,311,220,162,285,684,5010,273
lenalidomide and enzastaurin,127,128,77.0,238,81.6,70.7,127,124,134,102
FK866 and temozolomide,138,87.6,317,226,621,117,141,3630,312,38.3
enzastaurin and temozolomide,106,210,99.2,338,36.8,100,36.9,439,221,68.2
GW9662 and FK866,182,-,121,244,260,110,98.5,1070,152,80.7
everolimus and FK866,186,130,136,211,364,139,144,757,243,362
lenalidomide and FK866,50.2,123,84.5,180,1060,94.2,57.9,3330,19.1,130
fludarabine and FK866,69.8,98.3,81.8,28.5,697,117,82.8,1600,4200,122
temozolomide and lenalidomide,109,108,46.5,268,70.2,93.4,318,53.0,241,60.0
enzastaurin and fludarabine,127,166,59.3,158,59.8,86.7,47.9,779,1520,60.9
GW9662 and dorsomorphin,132,213,115,565,185,187,119,208,161,160
fludarabine and dorsomorphin,85.0,-,138,151,155,132,670,1270,1470,276
dorsomorphin and everolimus,97.8,-,110,193,102,120,96.3,61.1,99.9,135
fludarabine and GW9662,162,-,114,243,109,145,253,1250,3130,176
everolimus and lenalidomide,109,201,99.7,317,289,144,137,26.1,42.4,233
enzastaurin and dorsomorphin,88.8,-,439,285,50.0,125,45.1,80.8,219,273
dorsomorphin and FK866,104,-,66.5,154,283,91.6,68.6,2850,35.0,234
enzastaurin and everolimus,23.4,99.2,142,318,124,110,169,177,29.8,46.3
GW9662 and everolimus,421,-,211,231,97.7,187,61.5,213,103,86.8
enzastaurin and FK866,28.4,136,180,185,410,134,190,6170,122,172
GW9662 and temozolomide,97.2,139,253,137,195,211,324,105,207,88.7
lenalidomide and dorsomorphin,61.8,159,154,221,46.5,113,156,150,102,140
enzastaurin and GW9662,63.8,-,322,458,78.8,129,162,782,231,103